Reference: PubChem BioAssay AID330 (DTP/NCI, 2004)
The list shows only some results of the screen, not a fair sample: it is rich in T/C values a quarter to a half above the control, in often repeated tests (any T/C) and in doses without a T/C. Other doses and runs of a compound stand elsewhere. T/C is the treated group as % of the vehicle group. Some doses have a count of surviving animals in place of a T/C: the source files T/C as zero there, which appears to mark a toxic dose or a test without result, not a measured value. Some doses without a T/C left all or most animals alive at the check, yet need not have been tolerated: survival well below the control is almost never listed, so the zero probably covers shortened survival too. Survivors were counted at the toxicity check, usually on the fifth day, unless a day is given; later deaths do not show. Schedules are NCI's codes, taken here to give the interval after Q, in days (D) or hours (H), and the number of doses after X. Some entries were tested several times; the values are given in rising order. Where survival is the endpoint, this PubChem deposit counts one and a half times the control or more as active, and values a quarter to a half above the control carry no call in these data; other NCI protocols may use other cut-offs.

Test system: P388 leukemia ip, CD2F1 mice, survival T/C
Test: NCI In Vivo Anticancer Drug Screen. Data for tumor model P388 Leukemia (intraperitoneal) in CD2F1 (CDF1) mice
Details: T/C endpoint: median survival time, higher T/C = longer survival
[1] = dose: 200.0 mg/kg/injection, schedule: Q01DX009 (ip), vehicle: Klucel (hydroxypropylcellulose) (HPC)
[2] = dose: 25.0 mg/kg/injection, schedule: Q01DX009 (ip), vehicle: Klucel (hydroxypropylcellulose) (HPC)
[3] = dose: 200.0 mg/kg/injection, schedule: Q01DX001 (ip), vehicle: saline with Tween-80
[4] = dose: 400.0 mg/kg/injection, schedule: Q01DX001 (ip), vehicle: saline with Tween-80
[5] = dose: 240.0 mg/kg/injection, schedule: Q01DX005 (ip), vehicle: saline with Tween-80
[6] = dose: 50.0 mg/kg/injection, schedule: Q01DX009 (ip), vehicle: Klucel (hydroxypropylcellulose) (HPC)
[7] = dose: 100.0 mg/kg/injection, schedule: Q01DX009 (ip), vehicle: Klucel (hydroxypropylcellulose) (HPC)
[8] = dose: 200.0 mg/kg/injection, schedule: Q01DX009 (ip), vehicle: saline with Tween-80
[9] = dose: 100.0 mg/kg/injection, schedule: Q01DX009 (ip), vehicle: saline
[10] = dose: 120.0 mg/kg/injection, schedule: Q01DX005 (ip), vehicle: saline with Tween-80

In the case of `CNC(=O)Oc1ccccc1OC(C)C`, the survivor count (dose: 30.0 mg/kg/injection, schedule: Q01DX005 (ip), vehicle: Klucel (hydroxypropylcellulose) (HPC)) is reported as 0 of 6, the survivor count (dose: 60.0 mg/kg/injection, schedule: Q01DX005 (ip), vehicle: Klucel (hydroxypropylcellulose) (HPC)) is reported as 0 of 6 and the survivor count (dose: 120.0 mg/kg/injection, schedule: Q01DX005 (ip), vehicle: Klucel (hydroxypropylcellulose) (HPC)) is reported as 0 of 6. The survivor count (dose: 240.0 mg/kg/injection, schedule: Q01DX005 (ip), vehicle: Klucel (hydroxypropylcellulose) (HPC)) was 0 of 6.

`Cc1cc(C)cc(NCCC#N)c1` was tested, and the survivor count (dose: 400.0 mg/kg/injection, schedule: Q04DX003 (ip), vehicle: other) was 5 of 6.

For `O=C(Nc1ncc([N+](=O)[O-])s1)C(Cl)Cl`, the survivor count [1] was 3 of 6.

In the case of `CNCC(CO)C(C)(C)C` (stereo not drawn), the survivor count (dose: 400.0 mg/kg/injection, schedule: Q04DX003 (ip), vehicle: saline) is reported as 0 of 6.

In the case of `Cc1cccc(=N)n1CCC(=O)O`, the survivor count (dose: 400.0 mg/kg/injection, schedule: Q01DX009 (ip), vehicle: saline) is reported as 4 of 6.

With `c1ccc(-c2c[s+]cs2)cc1` the T/C (dose: 50.0 mg/kg/injection, schedule: Q01DX009 (ip), vehicle: distilled water + Tween-80) was 133 % of control, the survivor count (dose: 100.0 mg/kg/injection, schedule: Q01DX009 (ip), vehicle: distilled water + Tween-80) was 4 of 6 and the survivor count (dose: 200.0 mg/kg/injection, schedule: Q01DX009 (ip), vehicle: distilled water + Tween-80) was 0 of 6. For the same compound, the survivor count (dose: 400.0 mg/kg/injection, schedule: Q01DX009 (ip), vehicle: distilled water + Tween-80) was 0 of 6.

For `CCn1cnc2c(SC3CCCC3)ncnc21`, the survivor count (dose: 400.0 mg/kg/injection, schedule: Q01DX009 (ip), vehicle: saline sonified) was 5 of 6.

For `Nc1nc(N)c2cc(N3CCCC3c3ccc(Cl)cc3)ccc2n1` (stereo not drawn), the survivor count (dose: 12.5 mg/kg/injection, schedule: Q01DX009 (ip), vehicle: Klucel (hydroxypropylcellulose) (HPC)) was 0 of 6, 3 of 6, 6 of 6 and the survivor count [2] was 0 of 6.

With `O=C(O)c1ccccc1-c1nc2ccccc2[nH]1` the survivor count [3] was 1 of 6 and the survivor count [4] was 0 of 6.

`C/C(=C\c1cc(Cl)ccc1OCC(=O)O)[N+](=O)[O-]` was tested, and the survivor count [3] was 3 of 6 and the survivor count [4] was 0 of 6.

With `CN1C(c2ccccc2)CC(C)(O)CC1c1ccccc1` (stereo not drawn) the survivor count [5] was 0 of 6.

`O=[N+]([O-])c1ccc(-c2csc(Nc3ccccn3)n2)o1` was tested, and the survivor count (dose: 100.0 mg/kg/injection, schedule: Q01DX005 (ip), vehicle: saline with Tween-80) was 5 of 6 and the survivor count (dose: 200.0 mg/kg/injection, schedule: Q01DX005 (ip), vehicle: saline with Tween-80) was 6 of 6.

For `CSc1nc2ccc(NC(=O)/C=N/O)cc2s1`, the survivor count [6] was 6 of 6 and the survivor count [7] was 3 of 6.

`CN(C)c1ccc2c(NCCCCCCNc3ccnc4cc(N(C)C)ccc34)ccnc2c1` was tested, and the T/C (dose: 3.12 mg/kg/injection, schedule: Q01DX009 (ip), vehicle: distilled water + Tween-80 + alcohol) was 125 % of control, the T/C (dose: 3.12 mg/kg/injection, schedule: Q01DX009 (ip), vehicle: distilled water + alcohol) was 125 % of control and the T/C (dose: 3.13 mg/kg/injection, schedule: Q01DX009 (ip), vehicle: distilled water + alcohol) was 130 % of control. The T/C (dose: 6.25 mg/kg/injection, schedule: Q01DX009 (ip), vehicle: distilled water + Tween-80 + alcohol) was 140 % of control, the T/C (dose: 6.25 mg/kg/injection, schedule: Q01DX009 (ip), vehicle: distilled water + alcohol) was 128 and 140 % of control and the T/C (dose: 12.5 mg/kg/injection, schedule: Q01DX009 (ip), vehicle: distilled water + Tween-80 + alcohol) was 144 % of control. For the same compound, the T/C (dose: 12.5 mg/kg/injection, schedule: Q01DX009 (ip), vehicle: distilled water + alcohol) was 145 % of control, the survivor count (dose: 50.0 mg/kg/injection, schedule: Q01DX009 (ip), vehicle: distilled water + Tween-80 + alcohol) was 4 of 6 and the survivor count (dose: 50.0 mg/kg/injection, schedule: Q01DX009 (ip), vehicle: distilled water + alcohol) was 2 of 6 and 5 of 6. For the same compound, the survivor count (dose: 100.0 mg/kg/injection, schedule: Q01DX009 (ip), vehicle: distilled water + Tween-80 + alcohol) was 0 of 6, the survivor count (dose: 100.0 mg/kg/injection, schedule: Q01DX009 (ip), vehicle: distilled water + alcohol) was 0 of 6 and the survivor count (dose: 200.0 mg/kg/injection, schedule: Q01DX009 (ip), vehicle: distilled water + alcohol) was 0 of 6.

`O=C(O)C(Cc1ccc([N+](=O)[O-])cc1)NCc1ccco1` (stereo not drawn) was tested, and the survivor count [8] was 3 of 6.

In the case of `CCCCCCCCCCCC[N+]1([O-])CCOCC1`, the survivor count (dose: 6.25 mg/kg/injection, schedule: Q01DX009 (ip), vehicle: saline) is reported as 6 of 6, the survivor count [9] is reported as 0 of 6 and the survivor count (dose: 200.0 mg/kg/injection, schedule: Q01DX009 (ip), vehicle: saline) is reported as 0 of 6.

For `CCN(Cc1cccc(S(=O)(=O)O)c1)c1ccc(C(=C2C=CC(=[N+](CC)Cc3cccc(S(=O)(=O)O)c3)C=C2)c2ccccc2)cc1`, the survivor count (dose: 400.0 mg/kg/injection, schedule: Q01DX005 (ip), vehicle: saline) was 1 of 6.

With `O=C(O)[C@H](Cc1ccccc1)N1C(=O)c2ccccc2C1=O` the survivor count (dose: 1000.0 mg/kg/injection, schedule: Q01DX001 (ip), vehicle: saline with Tween-80) was 1 of 6 and the survivor count (dose: 2000.0 mg/kg/injection, schedule: Q01DX001 (ip), vehicle: saline with Tween-80) was 0 of 6.

With `CC(=O)OC1C2C(OC3OC(=O)/C(=C\C=C4\CCCC(C)(C)C4)C32)O[C@H]1OC(C)=O` (stereo partly drawn) the survivor count (dose: 50.0 mg/kg/injection, schedule: Q01DX005 (ip), vehicle: Klucel (hydroxypropylcellulose) (HPC)) was 6 of 6.

In the case of `CC(Br)C(=O)Nc1ncc([N+](=O)[O-])s1` (stereo not drawn), the survivor count (dose: 50.0 mg/kg/injection, schedule: Q01DX009 (ip), vehicle: saline) is reported as 6 of 6.

For `Cc1ccc2nc(NC(=O)OCc3ccccc3)sc2c1`, the survivor count [2] was 6 of 6, the survivor count [6] was 6 of 6 and the survivor count [7] was 4 of 6. The survivor count [1] was 0 of 6.

`NC(=S)N/N=C/c1ccc(OC(=O)COc2ccc(Cl)cc2)cn1` was tested, and the T/C (dose: 6.25 mg/kg/injection, schedule: Q01DX009 (ip), vehicle: saline with Tween-80) was 137 % of control, the T/C (dose: 25.0 mg/kg/injection, schedule: Q01DX009 (ip), vehicle: saline with Tween-80) was 148 % of control and the survivor count [8] was 6 of 6. The survivor count (dose: 400.0 mg/kg/injection, schedule: Q01DX009 (ip), vehicle: saline with Tween-80) was 3 of 6.

In the case of `CCCCN=C(N)N/N=C(\C)c1ccc(-c2ccccc2)cc1`, the survivor count (dose: 25.0 mg/kg/injection, schedule: Q04DX002 (ip), vehicle: saline with Tween-80) is reported as 0 of 6, the survivor count (dose: 50.0 mg/kg/injection, schedule: Q04DX002 (ip), vehicle: saline with Tween-80) is reported as 0 of 6 and the survivor count (dose: 100.0 mg/kg/injection, schedule: Q04DX002 (ip), vehicle: saline with Tween-80) is reported as 0 of 6.

For `CC12COC(=O)CC1CCC1C2CCC2(C)C1CCC2(C)O` (stereo not drawn), the survivor count (dose: 400.0 mg/kg/injection, schedule: Q04DX003 (ip), vehicle: saline with Tween-80) was 0 of 6.

In the case of `Cc1ccc2cccc(OC(=O)Nc3ccc(C)c(NC(=O)Oc4cccc5ccc(C)nc45)c3)c2n1`, the survivor count [10] is reported as 3 of 6 and the survivor count [5] is reported as 0 of 6.

For `Cc1cc2nc(CC(=O)c3cccnc3)c(=O)[nH]c2cc1C`, the survivor count (dose: 60.0 mg/kg/injection, schedule: Q01DX005 (ip), vehicle: saline with Tween-80) was 6 of 6, the survivor count [10] was 6 of 6 and the survivor count [5] was 3 of 6.

In the case of `O=C1/C(=C/c2ccc(F)cc2)SC(=S)N1c1ccc(Cl)c(Cl)c1`, the survivor count [9] is reported as 5 of 6.
